Results from patent US20240026009A1.
These are yes or no findings as the source states them, for the method shown. Some results given as binding are weak or reduced against the parent protein; the word gives no strength.

Chains of the proteins cited; added tags and fusions are not shown. Lines headed by an entry give the natural chain unless they say otherwise; changes in a name come on top.
UniProt P17931: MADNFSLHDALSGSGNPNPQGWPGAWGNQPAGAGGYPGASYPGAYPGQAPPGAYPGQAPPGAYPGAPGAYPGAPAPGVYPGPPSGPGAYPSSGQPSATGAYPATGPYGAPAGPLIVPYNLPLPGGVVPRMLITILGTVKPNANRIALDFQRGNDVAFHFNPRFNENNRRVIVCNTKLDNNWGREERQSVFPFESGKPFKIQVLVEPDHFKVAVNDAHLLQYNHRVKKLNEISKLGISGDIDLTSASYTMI

B1: mAb 20F08 (antibody, V domains shown)
VH: EVQLVESGGGLVKPGGSLRLSCAASGFIFSNYNINWVRQAPGKGLEWVSCVSRSNYTYYTDSVKGRFTISRDNAKKSLYLQMNSLRAEDTAVYYCARDCGTYGVFDYWGQGTLVTVSS
VL: ETTVTQSPASLSMAIGEKVTIRCITSTDIDDDMNWYQQKPGEPPKLLISEGNILRPGVPSRFSSSGYGTDFVFAIENMLSEDVADYYCLQSDNLPYTFGGGTKLELK
B2: mAb 12H07 (antibody, V domains shown)
VH: B1 VH
VL: B1 VL
B3: mAb 39F02 (antibody, V domains shown)
VH: EVQLLESGGGLVQPGGSLRLSCAASGFTLSNYAMSWVRQAPGKGLEWVSAISGSGGGTYNADSVKGRFTISRDNSKNTLYLQMNSLRAEDTAVYYCAKEAWISYFDYWGQGTLVTVSS
VL: DIVMSQSPSSLAVSVGEKVTLSCKSSQSLLYGDDQKNYLAWYQQKPGQSPKLLLYWASTWESGVPDRFTGSGSGTDFTLTISSVKAADLAVYYCQQYYSYPWTFGGGTKLEIK

Molecular target: PE labeled Gal-3 (Gal-3-PE) (human) (UniProt P17931)
Test: blockade of Gal-3-PE binding to OVCAR3 cells by purified antibody, number of Gal-3-PE-bound cells (Mirrorball)

binding | Binder
binds | B1
binds | B2
binds | B3
